Results on six molecules are retold here after publication doi:10.1101/2023.10.13.562244.

Amino acid sequences for entries named in this document (tags omitted).
UniProt Q3TKT4: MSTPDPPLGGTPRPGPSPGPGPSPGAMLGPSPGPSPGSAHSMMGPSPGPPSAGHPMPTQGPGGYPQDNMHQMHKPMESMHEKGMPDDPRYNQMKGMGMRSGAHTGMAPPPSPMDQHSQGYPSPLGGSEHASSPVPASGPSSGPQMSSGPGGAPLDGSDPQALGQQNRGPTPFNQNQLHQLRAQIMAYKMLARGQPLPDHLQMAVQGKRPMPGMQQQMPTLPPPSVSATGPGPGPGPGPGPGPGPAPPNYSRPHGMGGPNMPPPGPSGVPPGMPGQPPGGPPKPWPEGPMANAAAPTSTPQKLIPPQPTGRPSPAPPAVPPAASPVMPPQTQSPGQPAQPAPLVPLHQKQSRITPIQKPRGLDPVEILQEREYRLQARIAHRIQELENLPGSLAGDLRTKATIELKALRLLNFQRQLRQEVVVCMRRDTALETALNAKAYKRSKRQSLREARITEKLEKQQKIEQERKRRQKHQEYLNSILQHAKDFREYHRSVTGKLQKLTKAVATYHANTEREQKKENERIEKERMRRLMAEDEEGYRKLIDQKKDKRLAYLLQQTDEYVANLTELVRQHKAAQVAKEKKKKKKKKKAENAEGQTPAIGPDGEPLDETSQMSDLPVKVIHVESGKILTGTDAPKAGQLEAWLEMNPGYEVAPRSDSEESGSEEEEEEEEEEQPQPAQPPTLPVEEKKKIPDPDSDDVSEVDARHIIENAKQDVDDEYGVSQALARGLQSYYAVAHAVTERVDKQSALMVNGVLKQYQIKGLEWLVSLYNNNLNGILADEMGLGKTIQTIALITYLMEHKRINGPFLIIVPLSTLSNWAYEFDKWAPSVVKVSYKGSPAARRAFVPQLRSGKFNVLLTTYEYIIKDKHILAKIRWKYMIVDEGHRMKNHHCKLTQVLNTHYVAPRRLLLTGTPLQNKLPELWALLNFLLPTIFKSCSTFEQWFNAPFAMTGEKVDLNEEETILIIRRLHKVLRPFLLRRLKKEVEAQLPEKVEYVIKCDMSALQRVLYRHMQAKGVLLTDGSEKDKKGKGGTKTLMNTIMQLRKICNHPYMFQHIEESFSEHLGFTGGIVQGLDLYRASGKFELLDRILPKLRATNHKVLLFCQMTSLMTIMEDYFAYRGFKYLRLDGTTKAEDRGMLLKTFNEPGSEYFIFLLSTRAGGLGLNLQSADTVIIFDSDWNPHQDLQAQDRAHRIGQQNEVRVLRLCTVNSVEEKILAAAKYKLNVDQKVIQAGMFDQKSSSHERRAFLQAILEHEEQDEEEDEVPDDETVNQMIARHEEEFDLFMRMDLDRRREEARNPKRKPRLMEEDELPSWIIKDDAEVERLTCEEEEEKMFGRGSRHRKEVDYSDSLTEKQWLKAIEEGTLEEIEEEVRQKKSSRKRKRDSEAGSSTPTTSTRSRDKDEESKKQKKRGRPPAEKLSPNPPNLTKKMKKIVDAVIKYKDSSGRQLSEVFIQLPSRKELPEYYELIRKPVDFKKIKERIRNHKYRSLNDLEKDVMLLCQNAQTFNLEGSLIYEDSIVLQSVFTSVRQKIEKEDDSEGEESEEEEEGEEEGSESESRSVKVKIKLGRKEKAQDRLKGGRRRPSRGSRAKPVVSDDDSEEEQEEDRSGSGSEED
UniProt O54941: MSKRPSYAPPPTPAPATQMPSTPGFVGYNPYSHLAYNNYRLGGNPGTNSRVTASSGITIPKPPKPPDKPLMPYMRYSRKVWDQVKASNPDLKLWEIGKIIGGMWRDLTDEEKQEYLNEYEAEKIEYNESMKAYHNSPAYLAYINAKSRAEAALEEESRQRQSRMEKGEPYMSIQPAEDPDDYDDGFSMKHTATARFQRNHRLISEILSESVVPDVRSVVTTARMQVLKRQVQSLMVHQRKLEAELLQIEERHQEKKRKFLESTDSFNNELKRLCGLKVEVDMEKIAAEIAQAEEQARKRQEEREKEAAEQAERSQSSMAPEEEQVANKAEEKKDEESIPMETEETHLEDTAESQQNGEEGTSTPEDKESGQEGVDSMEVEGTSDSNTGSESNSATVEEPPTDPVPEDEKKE
UniProt Q8CHH5: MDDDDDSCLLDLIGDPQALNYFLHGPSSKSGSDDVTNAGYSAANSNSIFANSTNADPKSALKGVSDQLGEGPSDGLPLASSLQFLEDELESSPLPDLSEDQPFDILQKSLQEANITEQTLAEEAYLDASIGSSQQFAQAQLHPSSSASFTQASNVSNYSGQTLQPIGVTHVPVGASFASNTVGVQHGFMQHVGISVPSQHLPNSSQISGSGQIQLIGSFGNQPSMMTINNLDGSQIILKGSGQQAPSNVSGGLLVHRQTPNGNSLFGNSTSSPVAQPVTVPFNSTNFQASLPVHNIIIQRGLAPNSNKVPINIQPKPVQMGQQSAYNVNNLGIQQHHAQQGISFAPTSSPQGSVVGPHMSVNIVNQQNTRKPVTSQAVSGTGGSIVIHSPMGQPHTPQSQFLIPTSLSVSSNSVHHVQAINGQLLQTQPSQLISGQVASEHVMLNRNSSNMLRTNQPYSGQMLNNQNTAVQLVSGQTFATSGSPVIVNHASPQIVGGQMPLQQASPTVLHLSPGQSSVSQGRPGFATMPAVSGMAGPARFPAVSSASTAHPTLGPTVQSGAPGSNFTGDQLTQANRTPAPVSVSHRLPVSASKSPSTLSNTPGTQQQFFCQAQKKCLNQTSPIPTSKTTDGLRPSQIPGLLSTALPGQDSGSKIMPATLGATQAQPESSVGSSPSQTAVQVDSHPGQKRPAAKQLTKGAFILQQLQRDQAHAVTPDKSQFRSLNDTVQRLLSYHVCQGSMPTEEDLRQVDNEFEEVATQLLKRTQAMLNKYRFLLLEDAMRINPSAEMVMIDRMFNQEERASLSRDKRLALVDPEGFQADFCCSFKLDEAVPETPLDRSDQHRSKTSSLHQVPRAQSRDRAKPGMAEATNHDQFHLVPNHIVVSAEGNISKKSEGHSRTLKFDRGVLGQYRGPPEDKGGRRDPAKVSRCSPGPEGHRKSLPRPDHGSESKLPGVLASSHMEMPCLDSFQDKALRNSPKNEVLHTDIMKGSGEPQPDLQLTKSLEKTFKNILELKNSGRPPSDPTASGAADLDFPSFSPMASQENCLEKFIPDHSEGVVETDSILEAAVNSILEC
UniProt F8VPZ9: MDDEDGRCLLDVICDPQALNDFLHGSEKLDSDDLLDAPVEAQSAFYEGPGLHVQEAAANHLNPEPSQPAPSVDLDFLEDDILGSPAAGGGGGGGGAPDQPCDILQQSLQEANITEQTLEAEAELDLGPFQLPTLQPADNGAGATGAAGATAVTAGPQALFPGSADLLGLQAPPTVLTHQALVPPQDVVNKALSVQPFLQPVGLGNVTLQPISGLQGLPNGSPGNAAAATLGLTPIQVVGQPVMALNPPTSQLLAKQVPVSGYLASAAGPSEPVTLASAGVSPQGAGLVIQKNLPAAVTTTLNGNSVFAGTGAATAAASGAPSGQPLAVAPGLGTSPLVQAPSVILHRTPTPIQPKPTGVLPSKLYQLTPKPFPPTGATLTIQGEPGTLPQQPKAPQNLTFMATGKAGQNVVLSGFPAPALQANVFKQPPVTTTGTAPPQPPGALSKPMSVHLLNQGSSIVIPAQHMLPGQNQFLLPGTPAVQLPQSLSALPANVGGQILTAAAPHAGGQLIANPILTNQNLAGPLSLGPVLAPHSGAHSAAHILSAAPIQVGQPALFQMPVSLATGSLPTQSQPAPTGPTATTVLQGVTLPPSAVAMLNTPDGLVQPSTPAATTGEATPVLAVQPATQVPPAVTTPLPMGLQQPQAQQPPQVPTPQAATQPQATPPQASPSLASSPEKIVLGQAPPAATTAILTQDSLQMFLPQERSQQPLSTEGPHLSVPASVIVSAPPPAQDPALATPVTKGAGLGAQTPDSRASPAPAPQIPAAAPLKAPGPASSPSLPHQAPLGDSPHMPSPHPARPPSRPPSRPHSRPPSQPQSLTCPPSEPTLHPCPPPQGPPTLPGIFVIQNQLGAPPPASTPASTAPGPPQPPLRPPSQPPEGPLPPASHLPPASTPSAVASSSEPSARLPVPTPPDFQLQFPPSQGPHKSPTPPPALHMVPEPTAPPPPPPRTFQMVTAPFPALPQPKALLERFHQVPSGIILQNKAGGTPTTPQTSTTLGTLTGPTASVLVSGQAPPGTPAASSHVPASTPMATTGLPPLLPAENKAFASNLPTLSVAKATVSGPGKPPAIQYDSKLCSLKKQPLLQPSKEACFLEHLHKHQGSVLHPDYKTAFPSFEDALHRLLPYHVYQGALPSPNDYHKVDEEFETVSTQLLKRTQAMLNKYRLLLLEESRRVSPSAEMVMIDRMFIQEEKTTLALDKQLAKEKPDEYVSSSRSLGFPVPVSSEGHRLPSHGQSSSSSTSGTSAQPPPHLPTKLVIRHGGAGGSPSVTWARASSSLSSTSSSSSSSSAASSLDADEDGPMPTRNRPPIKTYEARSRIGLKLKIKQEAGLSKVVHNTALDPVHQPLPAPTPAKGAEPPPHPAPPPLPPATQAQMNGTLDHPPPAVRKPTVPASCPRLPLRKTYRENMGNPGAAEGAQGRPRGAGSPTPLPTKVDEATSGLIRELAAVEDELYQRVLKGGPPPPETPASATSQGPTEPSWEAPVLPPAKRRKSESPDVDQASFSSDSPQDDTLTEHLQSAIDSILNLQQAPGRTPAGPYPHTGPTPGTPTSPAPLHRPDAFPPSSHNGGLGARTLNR
UniProt Q9QX66: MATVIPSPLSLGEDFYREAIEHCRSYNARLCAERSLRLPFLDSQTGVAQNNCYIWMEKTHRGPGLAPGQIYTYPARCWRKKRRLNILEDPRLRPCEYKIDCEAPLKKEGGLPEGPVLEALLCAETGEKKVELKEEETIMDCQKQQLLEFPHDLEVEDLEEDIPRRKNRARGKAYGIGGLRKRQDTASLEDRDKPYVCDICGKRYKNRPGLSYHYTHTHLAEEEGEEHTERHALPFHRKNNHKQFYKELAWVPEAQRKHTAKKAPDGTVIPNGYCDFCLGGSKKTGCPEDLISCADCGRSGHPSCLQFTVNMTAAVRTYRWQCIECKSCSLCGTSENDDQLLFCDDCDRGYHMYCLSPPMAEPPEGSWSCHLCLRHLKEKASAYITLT

The target of assay [1] is Brg1/Smarca4 (mouse (endogenous in primary cortical neurons)) (UniProt Q3TKT4). In words: affinity purification with mass spectrometry.
For assay [2] the target is unchanged. As to the kind of experiment: affinity purification with mass spectrometry. The source holds these as a separate data set.

Read-outs that look alike come from different tables or passages of the source. These are yes or no findings as the source states them, for the method shown. In cells and extracts the contact can be indirect. These calls come from enrichment with a bait or labelling near it, and not all partners need be listed.

Regarding “Baf57/Smarce1 (from UniProt O54941 1-411)”, the binding entry in assay [1] is recorded as “binds”.

On to “Bicra/Gltscrl1 (from UniProt Q8CHH5 1-1074)”, for which, in assay [1], the binding entry is on record as “binds”.

“Bicra/Gltscr1 (from UniProt F8VPZ9 1-1578)”: the binding entry in assay [1] is “binds”.

Turning to Baf45b/Dpf1 (from UniProt Q9QX66 1-387), the binding result in assay [1] is “binds”.

B1: Baf45a/Phf10 (protein, UniProt Q9D8M7 1-497)
chain: MTAAGPGAAPSPGRCDSDPASPGAQSPKDDNEDNSNDGTHPCKRRRMGSGDSSRSCETSSQDLSFSYYPAENLIEYKWPPDETGEYYMLQEQVSEYLGVTSFKRKYPDLERRDLSHKEKLYLRELNVITETQCTLGLTALRSDEVIDLMIKEYPAKHAEYSVILQEKERQRITDHYKEYSQMQQQSTQKVEASKVPEYIKKAAKKAAEFNSNLNRERMEERRAYFDLQTHVIQVPQGKYKVLPTDRTKVSSYPVALIPGQFQEYYKRYSPDELRYLPLNTALYEPPLDPELPALDSDGDSDDGEDGGGDEKRKNKGTSDSSSGNVSEGDSPPDSQEDTFHGRQKSKDKMATPRKDGSKRSVLSKSAPGYKPKVIPNALCGICLKGKESNKKGKAESLIHCSQCDNSGHPSCLDMTMELVSMIKTYPWQCMECKTCIICGQPHHEEEMMFCDVCDRGYHTFCVGLGAIPSGRWICDCCQRAPPTPRKVGRRGKNSKEG
As to B1, the binding result in assay [2] is on record as “binds”.

B2: Dclk2 (doublecortin like kinase 2) (protein, UniProt Q6PGN3 1-756)
chain: MASTRSIELEHFEERDKRPRPGSRRGAPSSSGGSSISGPKGNGLIPSPAHSAHCSFYRTRTLQALSSEKKAKKARFYRNGDRYFKGLVFAISNDRFRSFDALLIELTRSLSDNVNLPQGVRTIYTIDGSRKVTSLDELLEGESYVCASNEPFRKVDYTKNVNPNWSVNIKGGTTRTLAVASAKSEVKESKDFIKPKLVTVIRSGVKPRKAVRILLNKKTAHSFEQVLTDITEAIKLDSGVVKRLCTLDGKQVTCLQDFFGDDDVFIACGPEKYRYAQDDFVLDHSECRVLKSSYSRASAAKYSGSRSPGFSRRSKSPASVNGTPSSQLSTPKSTKSSSSSPTSPGSFRGLKQISAQGRSSSNVNGGPELDRCLSPEGVNGNRCSESFPLLEKYRIGKVIGDGNFAVVKECVDRYTGKEFALKIIDKAKCCGKEHLIENEVSILRRVKHPNIIMLVEEMETATDLFLVMELVKGGDLFDAITSSTKYTERDGSAMVYNLANALRYLHSLSIVHRDIKPENLLVCEYPDGTKSLKLGDFGLATVVEGPLYTVCGTPTYVAPEIIAETGYGLKVDVWAAGVITYILLCGFPPFRSENNLQEDLFDQILAGKLEFPAPYWDNITDSAKELISQMLQVNVEARCTAGEILSHPWVSDDASQENNMQAEVTGKLKQHFNNALPKQNSTTTGVSVIMNTALDKEGQIFCSKLCQDSSRPSREQTSPVPPSAQEAPPPLESPRPPGPPATSGCDLAGTWRRHRD
Regarding B2, the binding entry in assay [2] was “binds”.
